According to patent US20220184003A1, “Formulations of Cannabidiol Derivatives and Their Use as Modulators of Cannabinoid Receptor Type 2 (CB2)” (EMERALD HEALTH PHARMACEUTICALS INC, priority 2019, published 2022):
At least one compound was matched to its structure with a doubt left.

Assay: Turbidimetric aqueous solubility (estimated precipitation range)
Format: physicochemical
Details: aqueous solubility test at 37° C.

COC(=O)C1=C(C)NC(C)=C(C(=O)OCCN(C)Cc2ccccc2)C1c1cccc([N+](=O)[O-])c1 (stereo not drawn) [nicardipine, reference compound]
Estimated Precipitation Range, Calculated Mid-range: 20 µM
Estimated Precipitation Range, Lower Bound: 10 µM
Estimated Precipitation Range, Upper Bound: 30 µM
